Measured values from PubChem BioAssay AID1259354 (Paczesny and Yang Labs, IUPUI and University of Michigan, 2018).
Values joined by “and” are separate entries in the source; they are usually repeats but may differ in a detail not shown here. Identical values can stand only once. The whole screen tested about 78,000 compounds, of which about 1,800 (2.3%) were called active. Inconclusive results, whose numbers are uncertain, are shown with a selection of clear calls. Cut-off read from the data, not from the text of the source: active = inhibition above about 30%; inconclusive = mostly about 10% to 28%; inactive = weaker than that.

The chains behind the UniProt entries cited, without tags or fusion partners. Where a name states a change or a piece, a line headed by the entry shows the natural chain unless it says otherwise.
UniProt Q01638: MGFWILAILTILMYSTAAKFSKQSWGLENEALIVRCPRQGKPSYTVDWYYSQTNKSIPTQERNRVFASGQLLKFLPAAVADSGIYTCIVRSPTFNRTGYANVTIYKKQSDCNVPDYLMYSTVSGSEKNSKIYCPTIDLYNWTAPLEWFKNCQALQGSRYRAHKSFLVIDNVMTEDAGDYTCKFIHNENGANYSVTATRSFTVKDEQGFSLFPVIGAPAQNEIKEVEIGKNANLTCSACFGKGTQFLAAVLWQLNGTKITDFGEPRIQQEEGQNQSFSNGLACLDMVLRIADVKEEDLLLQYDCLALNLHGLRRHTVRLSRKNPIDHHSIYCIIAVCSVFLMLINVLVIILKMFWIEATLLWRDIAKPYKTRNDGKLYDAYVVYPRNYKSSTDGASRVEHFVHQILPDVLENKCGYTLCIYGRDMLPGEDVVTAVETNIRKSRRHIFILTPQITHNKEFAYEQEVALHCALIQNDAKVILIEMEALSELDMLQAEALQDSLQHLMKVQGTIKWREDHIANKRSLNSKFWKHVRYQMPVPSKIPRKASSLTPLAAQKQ

Molecular target: Interleukin-1 receptor-like 1 (Homo sapiens) (UniProt Q01638)
Assay: blocks human ST2 binding to IL-33, primary screen, biochemical, AlphaLISA (AID 1259354)
Conditions: AlphaLISA ST2-Fc/biotin-IL-33 interaction, 1 h; at 17 µM, hits give high values

| Structure (SMILES) | inhibition |
| --- | --- |
| COCCCn1c(SCC(=O)Nc2ccccc2OC)nc2c(sc3ccccc32)c1=O | inconclusive: 15% |
| Cc1cccc(NC(=O)c2ncn[nH]2)c1C | inactive |
| N#Cc1nc(COc2ccc(Cl)cc2)oc1NCCCn1ccnc1 | inconclusive: 27% |
| CCc1cccc(C)c1NC(=O)c1cc2ccccc2oc1=O | inactive |
| Cn1ccnc1SCCNc1nc2nonc2nc1N1CCSCC1 | inactive |
| CC(C)Nc1cc(-c2cccc(CN3CCOCC3)c2)ncn1 | inconclusive: 10% |
| c1coc(CCNc2nc3nonc3nc2N2CCSCC2)c1 | inconclusive: 14% |
| O=C1N=C(N2CCOCC2)S/C1=C/c1cccc(Br)c1 | inactive |
| O=S(=O)(NCc1ccccc1)Nc1ccc2cn[nH]c2c1 | inconclusive: 17% |
| COc1ccccc1CN(Cc1cc(C(C)(C)C)n[nH]1)C1CC1 | inactive |
| CCc1ccc(C2C(C#N)=C(N)Oc3n[nH]c(-c4cc(OC)c(OC)c(OC)c4)c32)cc1 (centres undefined) | inactive |
| Cc1ccccc1CN1CCC(O)CC1 | inactive |
| CC(=O)c1sc2ccccc2c1OC(=O)c1ccccc1F | inconclusive: 15% |
| O=C(O)c1cc([N+](=O)[O-])c(C(=O)O)cc1Oc1ccc(Cl)cc1 | inactive |
| Cn1nc(C2CCN(c3cnccn3)CC2)n(-c2ccccc2)c1=O | inconclusive: 20% |
| CC(C)Cn1cc(C(=O)NCC2CCCO2)c2c3ccccc3n(C)c2c1=O (centres undefined) | inconclusive: 12% |
| O=S(=O)(N1CCCC1)N1CCn2cncc2C1 | inconclusive: 18% |
| CC(C)(C)c1cc(CN(Cc2cccnc2)Cc2ccc3c(c2)OCO3)[nH]n1 | inactive |
| C=CCNc1nc(NC(C)(C)CO)nc(OCC)n1 | inconclusive: 14% |
| O=C(CC1CCC(=O)N1)NCc1cccnc1-n1cnc2ccccc21 (centres undefined) | inconclusive: 24% |
| CCC(=O)N1c2ccccc2-c2nnc(SC)nc2OC1c1ccc(C)o1 (centres undefined) | inactive |
| CC(=O)N1CCN(c2ncccc2CNC(=O)C2CC23CCCCC3)CC1 (centres undefined) | inconclusive: 17% |
| CCOC(=O)Cn1c(=O)n(-c2ccc(F)cc2)c2nc(-c3ccc(C(C)C)cc3)nc(C(N)=O)c21 | inactive |
| Cn1c(=O)c2c(nc(NCCc3ccccc3)n2Cc2c(F)cccc2Cl)n(C)c1=O | inactive |
| Cc1ccc(CN2CCN(C)C3(CCN(C(=O)C4CCCC4)CC3)C2)cc1 | inconclusive: 17% |

| Structure (SMILES) | inhibition |
| --- | --- |
| c1csc(C2=NN3C(C2)c2ccccc2OC3c2ccsc2)c1 (centres undefined) | inconclusive: 23% |
| COc1ccc(NC(=O)c2cnc3n(c2=O)CCS3)cc1Cl | inconclusive: 21% |
| Cn1c(=O)c2c(nc(NCc3ccc4c(c3)OCO4)n2Cc2ccc(F)cc2)n(C)c1=O | inconclusive: 10% |
| O=C(N[C@H]1COC[C@@H]1N1CCCC1)c1ccccc1N1CCOCC1 | inconclusive: 17% |
| CCN(Cc1noc(C)n1)C(=O)c1cnc(Nc2ccccc2)nc1 | inconclusive: 21% |
| C=CCn1cc(-c2c(-c3ccccc3)ncn2CCc2ccccn2)cn1 | inconclusive: 19% |
| C=CCN(Cc1ccc(F)cc1)C(=O)c1c[nH]c2c(C)cccc2c1=O | inactive |
| CN(C(=O)c1cnc(N2CCN(c3ccccn3)CC2)c2ccccc12)c1ccc(Cl)cc1 | inactive |
| CCN(CC1CCN(C2CCN(C)CC2)CC1)C(=O)C1=CCCC1 | inconclusive: 15% |
| COc1ccc(NC(=O)Cn2c(-c3ccccc3)cn(-c3ccc(C)cc3)c2=O)cc1 | inconclusive: 25% |
| O=c1[nH]nc(C[N+](=O)[O-])c2ccccc12 | active: 30% |
| COc1ccc(-c2nnc(C[C@@H]3C[C@@H](C(C)C)[C@H](CN4CC[C@H](NC(C)=O)C4)C=C3C)o2)cc1 | inactive |
| Cc1cc(C(=O)N(C)CC2=CCCN(C[C@@H](O)CO)C2)c(C)o1 | inconclusive: 10% |
| C=CCC1(CC=C)CCCN1C(=O)CC(=O)Nc1ccc(C)cc1C | inactive |
| O=C(O)CSC1CC(=O)N(c2cccc(Cl)c2)C1=O (centres undefined) | inconclusive: 18% |
| CN1CCN(C(=O)CN2C(=O)/C(=C/c3ccccc3F)Sc3ccccc32)CC1 | inconclusive: 18% |
| COc1ccc(C2Nc3ccccc3C(=O)N2Cc2ccco2)cc1COc1ccc(Cl)cc1 (centres undefined) | inconclusive: 12% |
| O=C1CC(c2c(Cl)nc3sccn23)c2cc3cn[nH]c3cc2N1 (centres undefined) | inconclusive: 20% |
| CCCCOc1ccc(C2=N/C(=C\c3ccccc3)C(=O)O2)cc1 | inconclusive: 20% |
| CCN(C)S(=O)(=O)NCC1CCN(Cc2ccccc2C)CC1 | inconclusive: 11% |
| CCCCNC(=O)c1cc(CC(C)C)on1 | inconclusive: 18% |
| CCc1ncc(C(=O)N2CCN(Cc3ncccc3C)CC2)cn1 | inconclusive: 15% |
| Cc1nnsc1CN(C)C(=O)Cc1cc2c(cc1Cl)OCCO2 | inconclusive: 16% |
| CC(c1ccncc1)N(C)C(=O)Cc1ccc(O)c(Cl)c1 (centres undefined) | inactive |
| O=C(CN1CCCN(Cc2cccc(F)c2)S1(=O)=O)Nc1ccccc1F | inactive |

| Structure (SMILES) | inhibition |
| --- | --- |
| COc1ccc(C2C(=C(O)c3ccc(Cl)cc3)C(=O)C(=O)N2CCCN(C)C)c(OC)c1 (centres undefined) | inactive |
| Cc1ccccc1-n1c(=O)c2c3c(sc2n2c(SCC(N)=O)nnc12)CCCC3 | inconclusive: 18% |
| CCc1ccc(NC(=O)CSc2nc3c(c(=O)n2-c2ccccc2)SCC3)cc1 | inconclusive: 12% |
| Cn1c(CN2CCC3(CCNCC3)C2)cc2ccccc21 | inconclusive: 11% |
| Clc1ccc(CN2CCSCC2)c(Cl)c1 | inconclusive: 24% |
| O=C(NC[C@H]1O[C@@H](CC(=O)N2CCc3ccccc32)[C@H](O)[C@@H]1O)C1CC1 | inconclusive: 16% |
| N#Cc1ccc(C#N)c(-c2ccccc2)c1 | inconclusive: 14% |
| CCn1cnc(C(=O)NC)c1C(=O)NC | inactive |
| CCOC(=O)COc1cc2c(C(=O)OC)c(C)oc2cc1Br | inactive |
| COc1nc2c(cc1CNC1CCCCCC1)C(=O)N(CCc1ccccn1)C2 | inactive |
| CSCCNC(=O)CC1C(=O)NCCN1Cc1ccccc1 (centres undefined) | inactive |
| Cc1ccc(NC(=O)c2ccccc2Br)cc1 | inactive |
| O=C(Nc1ccc(N2CCCC2)cc1)c1ccc(Br)cc1 | inconclusive: 12% |
| O=C(CNC(=O)Cn1ccc2ccccc2c1=O)NCC1COc2ccccc2O1 (centres undefined) | inactive |
| COc1ccc(C2=N/C(=C\c3cccc(F)c3)C(=O)O2)cc1OC | inconclusive: 10% |
| CCN1CCN(C(=O)CSc2cc(=O)n(C)c3cc(Cl)ccc23)CC1 | inconclusive: 13% |
| Cc1ccc(C23C[C@@H]4C[C@@H](CC(Cl)(C4)C2)C3)cc1[N+](=O)[O-] | inconclusive: 23% |
| Cc1cccc(OCc2nc(C#N)c(NCc3cccnc3)o2)c1 | inconclusive: 19% |
| Cn1c(=O)c(/C=C/c2ccc3c(c2)OCO3)nc2ccccc21 | inconclusive: 10% |
| Nc1nnc(SCC(=O)NC(CF)Cc2ccccc2)s1 (centres undefined) | inactive |
| COc1ccc(CNc2ccc3c(c2)ncn3C)cc1OC | inactive |
| COc1cccc(OCC(O)Cn2ccnc2-c2nccn2C)c1 (centres undefined) | inconclusive: 16% |
| O=C(CCc1cc(=O)[nH]o1)N1CCCC(Nc2cccc(F)c2)C1 (centres undefined) | inconclusive: 15% |
| Oc1ccc(Cl)c(C(Nc2ccccn2)c2ccc3cccnc3c2O)c1 (centres undefined) | inconclusive: 18% |
| CN1C(=O)C2(CCN(C(=O)CCn3ccccc3=O)CC2)c2ccccc21 | inconclusive: 15% |

| Structure (SMILES) | inhibition |
| --- | --- |
| OC(C#CC(O)(c1ccccc1)c1ccccc1)c1ccco1 (centres undefined) | inactive |
| CC(C)NC(=O)CSc1nc(-c2ccco2)nc2cc(=O)[nH]n12 | inactive |
| O=C(NCc1ccco1)c1cc2cc3ccc(Cl)cc3nc2o1 | active: 39% and active: 34% |
| Cc1ccc(N2CCn3c2nc2c3c(=O)n(Cc3ccccc3)c(=O)n2C)cc1 | inconclusive: 27% |
| Cc1cccnc1N=Cc1cc(Br)cc(Br)c1O | inconclusive: 13% |
| O=C1c2ccccc2NC(c2ccccc2)N1c1cccc(C(F)(F)F)c1 (centres undefined) | inconclusive: 11% |
| O=C(c1ccc(S(=O)(=O)N2CCOCC2)cc1)N1CCN(Cc2ccc3c(c2)OCO3)CC1 | inconclusive: 17% |
| O=C1OC(c2ccccc2Cl)=N/C1=C\c1ccccc1 | inconclusive: 24% |
| Cc1nonc1CN(C)c1nccc(CCC(F)(F)F)n1 | inconclusive: 13% |
| CCOc1ccc(C2CC(=O)N3CN(Cc4ccco4)CSC3=C2C#N)cc1OC (centres undefined) | inconclusive: 16% |
| COc1ccc(-c2nc(C)ncc2C)cc1Cl | inactive |
| O=C(Cn1nnc(-c2ccccc2Cl)n1)NCc1ccccc1 | inactive |
| C[C@@H]1CN(Cc2ccc3c(c2)CN(Cc2nc(-c4ccccc4)cs2)CCO3)C[C@H](C)O1 | inconclusive: 12% |
| CCc1ccc(NC(=O)CSc2nnc(-c3ccc(N)cc3)n2C)cc1 | inconclusive: 20% |
| O=C1CN(C(=O)C2CCN(C3CCN(CCCc4ccccc4)CC3)CC2)CCN1 | inconclusive: 14% |
| CN(C)c1ccc(/C=C2\SC(=Nc3ccc(O)cc3)NC2=O)cc1 | inconclusive: 28% |
| CSc1ncccc1C(=O)N1CCC(C(Cc2ccccc2)N(C)C(=O)c2ccoc2C)CC1 (centres undefined) | inactive |
| Cc1nc(-c2cccc(C(=O)NCCC3CN(C)CCO3)c2)no1 (centres undefined) | inconclusive: 17% |
| Cc1nc2c(C(=O)NCc3ccccc3Cl)c[nH]n2c(=O)c1Cc1ccccc1F | inconclusive: 21% |
| Cc1nc2c(c(NCCc3nccc(-c4ccccc4)n3)n1)CCNC2 | inactive |
| c1ccc(CN2CCN(Cc3c[nH]c4ccccc34)CC2)nc1 | inactive |
| Cc1ccc(C(C)C)c(OCCn2nnc3ccccc32)c1 | inactive |
| COC(=O)C1CN(c2ccc(OC)cc2)N=C1C(C)=O (centres undefined) | inconclusive: 10% |
| COc1ccc(-n2nc3c(c2NC(=O)c2cccc(OC)c2)CS(=O)C3)cc1 (centres undefined) | inactive |
